Measured values published in patent publication EP4620968A1, “PEPTIDE HAVING ACTIVITY OF SKIN WHITENING AND USES THEREOF” (Caregen Co., Ltd., priority 2022, dated 2025).
Not every detail of the peptide structures is certain; ends, links or a residue may be inferred. Ends that are not written are not given here.

Tests used:
[1] = tested on: HaCaT cells; test: Analysis of incorporation by phagocytosis of melanosomes (melanin content, absorbance at 490 nm); type: cell-based, Human; conditions: peptide 50 µM, 100 µM, 200 µM for 24 hours, then 10 µg/mL melanosomes from HEM-DP for 48 hours, FIG. 1
[2] = tested on: protease activated receptor 2 (PAR2); test: Analysis of expression of PAR2 gene related to melanosome phagocytosis (PCR, trypsin-treated cells); type: cell-based, Human; conditions: HaCaT cells; peptide 10 µM, 50 µM, 100 µM for 24 hours, then 4 units of trypsin for 16 hours; concentration-dependent; FIGS. 2a and 2b
[3] = tested on: HaCaT cells; test: Melanosome degradation analysis (melanin content, absorbance at 490 nm); type: cell-based, Human; conditions: cells preloaded with 10 µg/mL melanosomes for 48 hours; peptide 10 µM, 50 µM, 100 µM, 200 µM with melanosomes for 72 hours; FIG. 3
[4] = tested on: Beclin-1 protein; test: Analysis of activation of autophagy flux (Western blotting), Beclin-1; type: cell-based, human; conditions: HaCaT cells; peptide 50 µM, 100 µM, 200 µM for 3 hours; compared to the negative control (CON); FIGS. 4a to 4d
[5] = tested on: LC3-I/II protein; test: Analysis of activation of autophagy flux (Western blotting), LC3-I/II; type: cell-based, human; conditions: HaCaT cells; peptide 50 µM, 100 µM, 200 µM for 3 hours; compared to the negative control (CON); FIGS. 4a to 4d
[6] = tested on: p62 protein; test: Analysis of activation of autophagy flux (Western blotting), p62; type: cell-based, human; conditions: HaCaT cells; peptide 50 µM, 100 µM, 200 µM for 3 hours; compared to the negative control (CON); FIGS. 4a to 4d

Q: Which results are given for “KQTPLVFKK [SEQ ID NO: 1, KQTPLVFKK (Lys-Gln-Thr-Pro-Leu-Val-Phe-Lys-Lys)]”?
A: incorporation of melanosomes into HaCaT cells [1]: inhibited; mRNA level of the PAR2 gene [2]: reduced; degradation of melanosomes in HaCaT cells [3]: induces the degradation of melanosomes; amount of Beclin-1 protein [4]: increased; amount of LC3-I/II protein [5]: increased; amount of p62 protein [6]: decreased
